In this assay the target is Intercellular adhesion molecule-1 (mouse (endogenous in brain tissue)) (UniProt P13597). Nature of the assay: co-IP; mouse brain tissue lysates (WT, uninjured and 48 h after 10 and 20 psi FPI); 500 ug total protein with 10 ug anti-ICAM-1 antibody overnight at 4°C, Protein A/G magnetic beads 1 h (Pierce Classic Magnetic IP/Co-IP kit); Western blots with ICAM-1, LFA-1 and Mac-1 antibodies; anti-IgG as negative control.

Protein sequences, listed by entry. Tags and fused reporters are not part of them. Lines headed by an entry give the natural chain unless they say otherwise; changes in a name come on top. Residues count along the entry.
UniProt P13597, residues 28-537: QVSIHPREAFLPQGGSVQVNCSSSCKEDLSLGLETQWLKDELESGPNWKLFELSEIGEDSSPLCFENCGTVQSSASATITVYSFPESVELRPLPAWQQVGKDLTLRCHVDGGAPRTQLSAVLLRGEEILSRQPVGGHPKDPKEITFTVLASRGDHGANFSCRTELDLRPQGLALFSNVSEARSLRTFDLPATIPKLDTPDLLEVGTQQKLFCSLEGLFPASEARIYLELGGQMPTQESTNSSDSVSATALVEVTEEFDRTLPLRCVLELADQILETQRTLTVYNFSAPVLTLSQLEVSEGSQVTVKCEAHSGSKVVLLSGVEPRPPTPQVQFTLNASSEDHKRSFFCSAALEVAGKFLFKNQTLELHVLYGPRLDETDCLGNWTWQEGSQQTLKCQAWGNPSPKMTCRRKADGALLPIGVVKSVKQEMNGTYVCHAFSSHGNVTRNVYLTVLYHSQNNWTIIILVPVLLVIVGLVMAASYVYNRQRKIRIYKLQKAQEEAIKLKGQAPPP
UniProt P24063: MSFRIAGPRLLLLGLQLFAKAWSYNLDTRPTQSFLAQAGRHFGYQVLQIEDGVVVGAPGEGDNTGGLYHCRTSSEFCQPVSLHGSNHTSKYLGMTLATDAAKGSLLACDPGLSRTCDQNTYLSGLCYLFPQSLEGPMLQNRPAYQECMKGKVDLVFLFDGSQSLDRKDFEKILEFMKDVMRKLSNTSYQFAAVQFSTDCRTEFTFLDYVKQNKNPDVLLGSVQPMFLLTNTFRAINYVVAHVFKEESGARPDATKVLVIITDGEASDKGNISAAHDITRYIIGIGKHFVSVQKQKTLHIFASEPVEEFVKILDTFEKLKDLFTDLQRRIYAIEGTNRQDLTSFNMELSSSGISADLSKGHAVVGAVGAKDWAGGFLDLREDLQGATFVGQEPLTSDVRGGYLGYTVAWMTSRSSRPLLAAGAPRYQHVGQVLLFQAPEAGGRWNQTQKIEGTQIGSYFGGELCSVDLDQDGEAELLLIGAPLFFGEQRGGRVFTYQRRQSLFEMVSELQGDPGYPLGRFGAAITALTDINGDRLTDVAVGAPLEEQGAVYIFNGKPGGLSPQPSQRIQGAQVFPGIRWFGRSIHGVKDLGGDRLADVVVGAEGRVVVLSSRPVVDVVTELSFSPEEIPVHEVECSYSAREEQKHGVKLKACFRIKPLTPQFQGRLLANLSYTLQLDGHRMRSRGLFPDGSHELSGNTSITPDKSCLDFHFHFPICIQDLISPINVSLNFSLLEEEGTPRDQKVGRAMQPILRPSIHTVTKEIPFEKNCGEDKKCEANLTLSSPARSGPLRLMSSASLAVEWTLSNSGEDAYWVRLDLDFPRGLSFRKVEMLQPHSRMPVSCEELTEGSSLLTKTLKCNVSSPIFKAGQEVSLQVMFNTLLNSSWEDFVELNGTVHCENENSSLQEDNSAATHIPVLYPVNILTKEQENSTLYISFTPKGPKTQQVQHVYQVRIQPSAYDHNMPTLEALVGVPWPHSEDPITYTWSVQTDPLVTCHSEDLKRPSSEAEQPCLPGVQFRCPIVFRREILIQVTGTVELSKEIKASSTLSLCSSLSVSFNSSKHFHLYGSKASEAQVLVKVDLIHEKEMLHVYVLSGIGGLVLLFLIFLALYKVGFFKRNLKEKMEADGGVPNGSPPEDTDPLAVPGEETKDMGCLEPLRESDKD
UniProt P05555: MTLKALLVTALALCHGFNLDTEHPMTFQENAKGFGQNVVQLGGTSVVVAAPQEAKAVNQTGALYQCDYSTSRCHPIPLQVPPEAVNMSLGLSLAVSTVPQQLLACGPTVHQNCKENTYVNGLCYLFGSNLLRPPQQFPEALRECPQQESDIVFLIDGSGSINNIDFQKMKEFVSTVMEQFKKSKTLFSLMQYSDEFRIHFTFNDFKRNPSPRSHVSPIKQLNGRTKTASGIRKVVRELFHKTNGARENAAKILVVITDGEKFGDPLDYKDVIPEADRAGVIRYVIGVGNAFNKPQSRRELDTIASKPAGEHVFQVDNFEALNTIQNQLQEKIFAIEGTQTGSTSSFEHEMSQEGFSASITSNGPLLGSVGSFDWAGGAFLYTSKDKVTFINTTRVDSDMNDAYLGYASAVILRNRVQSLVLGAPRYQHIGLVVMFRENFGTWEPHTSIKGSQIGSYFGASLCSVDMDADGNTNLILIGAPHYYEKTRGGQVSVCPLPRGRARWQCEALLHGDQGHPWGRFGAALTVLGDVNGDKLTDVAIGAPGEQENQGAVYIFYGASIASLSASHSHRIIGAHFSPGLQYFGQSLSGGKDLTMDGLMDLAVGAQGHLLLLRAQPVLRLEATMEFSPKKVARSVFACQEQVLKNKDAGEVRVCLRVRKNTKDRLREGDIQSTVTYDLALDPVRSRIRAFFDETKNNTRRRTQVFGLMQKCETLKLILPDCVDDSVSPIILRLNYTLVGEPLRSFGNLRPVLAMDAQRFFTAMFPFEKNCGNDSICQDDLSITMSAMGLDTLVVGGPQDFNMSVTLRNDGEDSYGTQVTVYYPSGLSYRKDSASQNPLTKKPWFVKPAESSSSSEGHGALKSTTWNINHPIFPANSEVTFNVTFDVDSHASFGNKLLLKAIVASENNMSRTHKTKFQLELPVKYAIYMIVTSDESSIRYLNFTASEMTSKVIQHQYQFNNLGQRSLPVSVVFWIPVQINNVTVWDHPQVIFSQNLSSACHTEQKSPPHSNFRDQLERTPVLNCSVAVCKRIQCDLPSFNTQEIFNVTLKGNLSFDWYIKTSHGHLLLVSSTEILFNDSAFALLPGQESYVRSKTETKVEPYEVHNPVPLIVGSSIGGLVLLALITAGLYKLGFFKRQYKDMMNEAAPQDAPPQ

Results are given in words; binding and its absence hold for the method and conditions named. Binding seen in cells or lysates may run through a third protein. Some results given as binding are weak or reduced against the parent protein; the word gives no strength.

The values that follow come from PMC8287878.

On to “leukocyte function-associated antigen (LFA)-1 (from UniProt P24063 24-1162; P11835 24-771) (complex)”, for which the binding entry is listed as “binds”.

As to “macrophage-1 antigen (from UniProt P05555 17-1153; P11835 24-771) (complex)”, the binding result is recorded as “binds”.
